Measurements from patent publication CN108383911A.
Results are given in words; binding and its absence hold for the method and conditions named. Some binding calls cover weakened binding; strength is not graded here.

Chains of the proteins cited; added tags and fusions are not shown. Residues count along the entry.
UniProt P08637, residues 17-254: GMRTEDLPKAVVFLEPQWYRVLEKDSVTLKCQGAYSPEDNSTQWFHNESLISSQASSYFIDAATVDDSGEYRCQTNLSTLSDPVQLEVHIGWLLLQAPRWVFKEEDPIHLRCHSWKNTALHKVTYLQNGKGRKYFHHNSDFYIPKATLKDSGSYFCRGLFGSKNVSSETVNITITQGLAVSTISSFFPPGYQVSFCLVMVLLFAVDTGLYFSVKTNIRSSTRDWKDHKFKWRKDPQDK

What was measured:
[1] = molecular target: NK细胞表面抗原CD16a, on NK cells (UniProt P08637); test: flow cytometry, 10 nM bispecific antibody on 1x10^6 NK cells, biotin goat anti-human IgG F(ab')2 + PE-streptavidin
[2] = molecular target: NK细胞表面抗原CD16a, on NK cells (UniProt P08637); test: flow cytometry on NK cells (legend of Figure 4)

- binding [1]: binds
- binding [2]: binds
B1: GPC3-CD16A双特异性抗体 (bispecific antibody)
chain: DVVMTQSPLSLPVTPGEPASISCRSSQSLVHSNGNTYLHWYLQKPGQSPQLLIYKVSNRFSGVPDRFSGSGSGTDFTLKISRVEAEDVGVYYCSQNTHVPPTFGQGTKLEIKGGGGSQVTLRESGPALVKPTQTLTLTCTFSGFSLSTSGMGVGWIRQPPGKALEWLAHIWWDDDKRYNPALKSRLTISKDTSKNQVVLTMTNMDPVDTATYYCARINPAWFAYWGQGTLVTVSSGQPREPQVYTLPPSREEMTKNQVSLTCLVKGFYPSDIAVEWESNGQPENNYKTTPPVLDSDGSFFLYSKLTVDKSRWQQGNVFSCSVMHEALHNHYTQKSLSLSPGKDTVLTQSPASLAVSLGQRATISCKASQSVDFDGHSFMNWYQQKPGQPPKLLIYTTSNLESGIPASFSASGSGTDFTLNIHPVEEEDTATYYCQQSNEDPYTFGGGTKLEIKGGGGSQVTLRESGPALVKPTQTLTLTCTFSGFSLSTSGMGVGWIRQPPGKALEWLAHIWWDDDKRYNPALKSRLTISKDTSKNQVVLTMTNMDPVDTATYYCARINPAWFAYWGQGTLVTVSS
